{"source": "ChEMBL document CHEMBL1137911", "about": "“Synthesis and evaluation of 4-triazolylflavans as new aromatase inhibitors” (Bioorg Med Chem Lett, 2004)", "target": "T1, Aromatase (Homo sapiens, UniProt P11511)", "T1 sequence (P11511 whole entry)": "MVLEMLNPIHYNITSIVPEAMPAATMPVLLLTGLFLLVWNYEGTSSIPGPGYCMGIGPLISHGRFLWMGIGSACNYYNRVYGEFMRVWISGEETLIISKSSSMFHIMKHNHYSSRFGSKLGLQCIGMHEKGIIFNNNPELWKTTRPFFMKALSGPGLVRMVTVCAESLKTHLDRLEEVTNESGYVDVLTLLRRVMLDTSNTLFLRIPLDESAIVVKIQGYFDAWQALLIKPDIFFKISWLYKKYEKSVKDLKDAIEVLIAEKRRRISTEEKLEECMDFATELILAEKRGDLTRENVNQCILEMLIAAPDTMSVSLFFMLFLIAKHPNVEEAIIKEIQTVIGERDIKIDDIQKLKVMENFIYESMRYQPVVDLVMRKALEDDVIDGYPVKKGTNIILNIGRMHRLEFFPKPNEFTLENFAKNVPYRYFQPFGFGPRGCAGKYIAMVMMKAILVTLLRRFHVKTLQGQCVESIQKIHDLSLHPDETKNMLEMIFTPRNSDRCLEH", "assay": "Relative potency for inhibition of aromatase binding compared to aminoglutethimide", "data": [{"molecule": "COc1ccc2c(c1)OC(c1ccccc1)CC2n1ccnc1", "note": "(stereo unspecified)", "values": [{"measurement": "Relative Potency", "value": 57.1}]}]}
